Results on 1 compound are retold here after US20200199528A1, “CELL CULTURE MEDIA FOR DIFFERENTIATION OF STEM CELLS INTO HEPATOCYTES” (KATHOLIEKE UNIVERSITEIT LEUVEN, priority 2017, published 2020).

For data set [1], the system named is HC6X cells.
Data set [2] deals with HepG2 cells. The procedure: PSC, HC3X and HC6X cells were differentiated in a 384 well format. Cells were treated with 14 different concentrations of compounds in 6 repeats. As a negative control 41 wells were left untreated. After 24 h of exposure media was aspirated and fresh media was added to the cells supplemented with […] of DRAQ 7 (Abcam; ab109202) and Hoechst dye (1/1000, Sigma, 33258) for 25 min at 37°. Cells were fixed with 4% paraformaldehyde. Imaging was done using an Operetta High-Content Imaging System (Perkin Elmer) and image analysis was performed using Harmony software (Perkin Elmer). Relative cell number was calculated as the percentage of living cells (draq7 positive amount subtracted from the Hoechst positive amount) relative to the average of living cells in the control wells. As a positive control, 2 donors of PHHs were seeded at 10 000 cells per well. Drugs were administrated after 8 hours of attachment. HepG2 cells were seeded at 40 000 cells per well. For control conditions HepG2 cells were exposed after 2 days of culture.

Consider `CCCCc1oc2ccccc2c1C(=O)c1cc(I)c(OCCN(CC)CC)c(I)c1` [amiodarone], for which the Toxicity result in data set [1] is listed as “no toxicity”; in data set [2] it was “not able to pick up toxicity”.
